According to the supplement of paper PMC10849652:
This is one part of the list.

By UniProt entry, the sequences of proteins in these tests, tags left out. Where a name states a change or a piece, a line headed by the entry shows the natural chain unless it says otherwise.
UniProt Q9NVI1: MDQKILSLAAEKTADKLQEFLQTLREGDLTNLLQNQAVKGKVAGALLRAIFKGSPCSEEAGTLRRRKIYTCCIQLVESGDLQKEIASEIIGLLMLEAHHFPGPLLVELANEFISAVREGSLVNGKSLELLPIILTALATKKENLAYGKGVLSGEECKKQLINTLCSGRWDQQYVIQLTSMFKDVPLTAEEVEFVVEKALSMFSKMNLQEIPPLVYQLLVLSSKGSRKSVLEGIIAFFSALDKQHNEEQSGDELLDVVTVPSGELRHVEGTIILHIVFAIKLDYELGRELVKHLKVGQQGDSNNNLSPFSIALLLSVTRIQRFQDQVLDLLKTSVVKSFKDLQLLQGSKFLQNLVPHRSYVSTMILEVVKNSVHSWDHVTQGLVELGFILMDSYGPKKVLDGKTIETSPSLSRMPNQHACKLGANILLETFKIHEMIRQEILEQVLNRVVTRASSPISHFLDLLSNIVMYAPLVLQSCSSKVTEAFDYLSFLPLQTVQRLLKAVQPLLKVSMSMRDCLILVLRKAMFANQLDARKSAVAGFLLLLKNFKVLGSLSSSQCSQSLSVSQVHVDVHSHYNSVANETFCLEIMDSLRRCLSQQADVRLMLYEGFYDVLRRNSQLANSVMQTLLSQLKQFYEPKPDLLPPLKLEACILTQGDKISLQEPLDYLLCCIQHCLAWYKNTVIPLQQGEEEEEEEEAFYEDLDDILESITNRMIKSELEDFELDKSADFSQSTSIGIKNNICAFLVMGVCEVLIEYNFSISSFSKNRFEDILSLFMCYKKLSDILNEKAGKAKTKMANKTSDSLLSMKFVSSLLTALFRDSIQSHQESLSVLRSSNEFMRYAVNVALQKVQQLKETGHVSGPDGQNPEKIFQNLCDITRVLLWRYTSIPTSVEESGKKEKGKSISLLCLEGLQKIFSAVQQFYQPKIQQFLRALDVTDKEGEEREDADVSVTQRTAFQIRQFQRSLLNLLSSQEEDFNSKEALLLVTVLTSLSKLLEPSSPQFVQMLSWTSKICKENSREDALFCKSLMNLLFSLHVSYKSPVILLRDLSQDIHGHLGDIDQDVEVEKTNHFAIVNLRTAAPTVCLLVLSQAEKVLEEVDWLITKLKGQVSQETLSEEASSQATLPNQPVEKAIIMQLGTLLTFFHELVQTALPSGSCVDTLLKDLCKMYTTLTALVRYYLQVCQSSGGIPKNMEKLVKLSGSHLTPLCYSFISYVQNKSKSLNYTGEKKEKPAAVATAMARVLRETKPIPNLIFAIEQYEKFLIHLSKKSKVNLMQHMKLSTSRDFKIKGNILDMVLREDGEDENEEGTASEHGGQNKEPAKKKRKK
UniProt Q9UKT5: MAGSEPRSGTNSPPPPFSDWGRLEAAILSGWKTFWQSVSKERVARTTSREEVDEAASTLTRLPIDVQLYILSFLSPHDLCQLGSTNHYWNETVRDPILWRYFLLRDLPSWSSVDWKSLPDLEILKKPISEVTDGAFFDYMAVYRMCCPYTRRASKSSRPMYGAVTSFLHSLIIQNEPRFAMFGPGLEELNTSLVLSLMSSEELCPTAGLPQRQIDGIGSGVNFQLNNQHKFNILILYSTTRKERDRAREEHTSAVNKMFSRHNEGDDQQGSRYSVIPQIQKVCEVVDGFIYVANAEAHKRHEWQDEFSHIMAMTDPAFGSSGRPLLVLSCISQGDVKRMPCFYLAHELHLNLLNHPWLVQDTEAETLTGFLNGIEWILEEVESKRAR
UniProt Q8NFF5: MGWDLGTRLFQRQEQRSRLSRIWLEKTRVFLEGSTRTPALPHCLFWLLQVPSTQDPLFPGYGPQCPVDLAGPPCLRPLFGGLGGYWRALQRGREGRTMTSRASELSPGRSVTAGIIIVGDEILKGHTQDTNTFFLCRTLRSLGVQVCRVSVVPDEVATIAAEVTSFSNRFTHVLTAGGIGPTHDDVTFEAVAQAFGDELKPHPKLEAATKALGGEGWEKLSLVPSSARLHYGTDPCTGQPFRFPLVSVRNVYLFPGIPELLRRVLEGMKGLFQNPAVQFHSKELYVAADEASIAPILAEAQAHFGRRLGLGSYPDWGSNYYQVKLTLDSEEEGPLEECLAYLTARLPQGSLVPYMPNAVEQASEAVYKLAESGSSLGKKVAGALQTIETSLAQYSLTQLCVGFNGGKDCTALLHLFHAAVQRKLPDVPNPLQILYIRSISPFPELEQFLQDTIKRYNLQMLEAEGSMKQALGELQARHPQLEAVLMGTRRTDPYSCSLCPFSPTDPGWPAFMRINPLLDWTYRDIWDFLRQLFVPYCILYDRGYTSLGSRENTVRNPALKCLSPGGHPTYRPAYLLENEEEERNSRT
UniProt Q52LJ0: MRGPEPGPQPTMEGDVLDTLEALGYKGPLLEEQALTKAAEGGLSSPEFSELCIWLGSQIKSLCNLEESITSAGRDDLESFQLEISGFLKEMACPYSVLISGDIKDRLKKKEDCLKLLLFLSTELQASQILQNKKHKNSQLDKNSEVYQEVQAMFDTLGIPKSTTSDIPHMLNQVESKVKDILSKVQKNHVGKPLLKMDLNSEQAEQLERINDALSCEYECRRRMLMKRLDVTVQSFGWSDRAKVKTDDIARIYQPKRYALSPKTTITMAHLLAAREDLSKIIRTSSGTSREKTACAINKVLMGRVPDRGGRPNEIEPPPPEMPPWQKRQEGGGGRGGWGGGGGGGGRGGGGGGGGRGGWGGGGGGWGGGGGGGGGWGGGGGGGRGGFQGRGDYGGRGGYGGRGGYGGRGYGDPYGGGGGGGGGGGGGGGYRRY
UniProt Q6P4F2: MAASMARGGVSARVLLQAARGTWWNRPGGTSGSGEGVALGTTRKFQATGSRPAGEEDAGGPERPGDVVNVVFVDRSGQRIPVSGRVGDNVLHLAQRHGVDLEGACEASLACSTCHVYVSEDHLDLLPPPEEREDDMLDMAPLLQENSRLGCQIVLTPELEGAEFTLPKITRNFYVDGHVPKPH
UniProt Q86WN1: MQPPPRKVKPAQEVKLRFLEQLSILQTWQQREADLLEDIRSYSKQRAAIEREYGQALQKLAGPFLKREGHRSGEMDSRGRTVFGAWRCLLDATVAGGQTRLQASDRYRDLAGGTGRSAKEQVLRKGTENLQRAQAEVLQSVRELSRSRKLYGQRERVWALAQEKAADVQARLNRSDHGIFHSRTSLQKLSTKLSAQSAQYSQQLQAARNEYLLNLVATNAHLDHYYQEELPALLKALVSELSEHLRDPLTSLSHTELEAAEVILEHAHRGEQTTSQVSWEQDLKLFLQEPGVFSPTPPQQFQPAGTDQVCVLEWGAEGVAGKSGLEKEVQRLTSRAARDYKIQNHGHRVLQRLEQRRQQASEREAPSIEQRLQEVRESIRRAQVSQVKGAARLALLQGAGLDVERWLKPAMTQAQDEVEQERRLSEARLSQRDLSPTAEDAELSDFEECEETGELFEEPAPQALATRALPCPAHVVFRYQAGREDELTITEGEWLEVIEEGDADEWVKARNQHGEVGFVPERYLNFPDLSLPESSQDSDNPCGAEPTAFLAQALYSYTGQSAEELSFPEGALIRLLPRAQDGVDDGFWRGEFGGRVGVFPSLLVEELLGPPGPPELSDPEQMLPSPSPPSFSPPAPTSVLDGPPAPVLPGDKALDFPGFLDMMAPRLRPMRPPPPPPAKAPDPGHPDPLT
UniProt Q9BXW9: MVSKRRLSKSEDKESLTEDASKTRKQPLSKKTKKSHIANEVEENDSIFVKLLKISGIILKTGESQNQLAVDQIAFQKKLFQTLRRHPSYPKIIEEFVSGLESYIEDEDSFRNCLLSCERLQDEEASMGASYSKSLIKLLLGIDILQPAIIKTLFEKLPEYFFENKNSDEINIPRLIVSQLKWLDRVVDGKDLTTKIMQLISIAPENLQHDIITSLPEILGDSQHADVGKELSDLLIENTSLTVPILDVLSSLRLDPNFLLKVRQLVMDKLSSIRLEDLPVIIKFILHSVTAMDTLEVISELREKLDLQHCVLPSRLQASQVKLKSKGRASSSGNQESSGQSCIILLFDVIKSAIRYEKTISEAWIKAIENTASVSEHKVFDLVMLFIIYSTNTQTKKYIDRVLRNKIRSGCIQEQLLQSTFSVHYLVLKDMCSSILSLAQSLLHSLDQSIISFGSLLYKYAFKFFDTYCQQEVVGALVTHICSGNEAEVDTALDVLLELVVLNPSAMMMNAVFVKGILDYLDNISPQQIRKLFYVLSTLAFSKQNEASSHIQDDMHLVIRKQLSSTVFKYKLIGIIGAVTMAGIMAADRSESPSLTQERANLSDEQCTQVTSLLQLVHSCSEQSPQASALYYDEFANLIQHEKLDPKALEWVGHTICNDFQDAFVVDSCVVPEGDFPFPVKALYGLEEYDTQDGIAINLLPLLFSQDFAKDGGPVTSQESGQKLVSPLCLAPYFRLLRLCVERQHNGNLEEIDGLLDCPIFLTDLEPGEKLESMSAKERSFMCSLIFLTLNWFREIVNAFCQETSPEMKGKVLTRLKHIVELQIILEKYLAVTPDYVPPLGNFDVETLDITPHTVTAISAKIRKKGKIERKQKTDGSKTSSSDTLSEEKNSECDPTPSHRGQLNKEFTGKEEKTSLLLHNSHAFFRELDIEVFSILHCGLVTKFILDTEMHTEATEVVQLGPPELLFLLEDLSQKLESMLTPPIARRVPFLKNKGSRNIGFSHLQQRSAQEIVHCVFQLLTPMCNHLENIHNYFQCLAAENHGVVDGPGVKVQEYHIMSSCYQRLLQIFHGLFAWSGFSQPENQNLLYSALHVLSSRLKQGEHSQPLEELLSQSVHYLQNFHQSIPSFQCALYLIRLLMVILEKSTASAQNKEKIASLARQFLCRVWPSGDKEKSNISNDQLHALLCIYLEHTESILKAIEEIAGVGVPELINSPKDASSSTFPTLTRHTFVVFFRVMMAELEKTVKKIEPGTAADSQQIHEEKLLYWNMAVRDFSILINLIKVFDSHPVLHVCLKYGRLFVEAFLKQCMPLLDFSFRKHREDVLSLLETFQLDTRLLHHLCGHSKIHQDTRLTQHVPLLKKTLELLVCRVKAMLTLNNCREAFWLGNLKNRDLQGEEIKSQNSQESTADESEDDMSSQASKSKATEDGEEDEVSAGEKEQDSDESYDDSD
UniProt O95466, whole entry, looked up: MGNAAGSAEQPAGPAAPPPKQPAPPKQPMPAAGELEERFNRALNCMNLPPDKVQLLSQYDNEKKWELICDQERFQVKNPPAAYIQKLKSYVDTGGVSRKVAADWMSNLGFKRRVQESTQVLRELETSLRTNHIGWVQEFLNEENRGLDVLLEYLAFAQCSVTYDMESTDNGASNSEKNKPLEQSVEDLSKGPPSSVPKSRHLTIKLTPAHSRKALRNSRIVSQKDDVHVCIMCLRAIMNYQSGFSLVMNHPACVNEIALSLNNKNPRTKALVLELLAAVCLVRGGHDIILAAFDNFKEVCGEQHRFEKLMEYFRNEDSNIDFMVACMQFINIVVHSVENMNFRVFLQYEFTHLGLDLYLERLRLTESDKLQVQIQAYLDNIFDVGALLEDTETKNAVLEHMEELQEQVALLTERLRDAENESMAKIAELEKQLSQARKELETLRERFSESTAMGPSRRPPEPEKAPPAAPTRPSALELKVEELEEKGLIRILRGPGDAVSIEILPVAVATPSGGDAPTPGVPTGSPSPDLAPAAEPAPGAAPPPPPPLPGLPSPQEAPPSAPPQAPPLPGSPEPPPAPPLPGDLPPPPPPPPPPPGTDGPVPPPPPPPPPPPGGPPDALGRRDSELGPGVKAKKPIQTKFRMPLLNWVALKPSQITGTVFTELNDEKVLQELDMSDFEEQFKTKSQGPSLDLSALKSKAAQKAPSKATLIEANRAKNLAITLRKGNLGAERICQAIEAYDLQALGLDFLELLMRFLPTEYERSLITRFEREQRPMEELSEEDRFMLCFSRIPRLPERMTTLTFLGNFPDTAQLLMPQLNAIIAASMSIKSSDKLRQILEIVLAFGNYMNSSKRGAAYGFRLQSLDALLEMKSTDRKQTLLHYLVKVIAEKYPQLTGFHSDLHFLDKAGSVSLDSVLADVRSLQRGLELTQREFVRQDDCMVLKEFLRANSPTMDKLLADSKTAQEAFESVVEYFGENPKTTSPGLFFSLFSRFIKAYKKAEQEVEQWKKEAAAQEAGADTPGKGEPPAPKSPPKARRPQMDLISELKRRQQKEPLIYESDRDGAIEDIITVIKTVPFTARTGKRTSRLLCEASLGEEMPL
UniProt Q9UHY8: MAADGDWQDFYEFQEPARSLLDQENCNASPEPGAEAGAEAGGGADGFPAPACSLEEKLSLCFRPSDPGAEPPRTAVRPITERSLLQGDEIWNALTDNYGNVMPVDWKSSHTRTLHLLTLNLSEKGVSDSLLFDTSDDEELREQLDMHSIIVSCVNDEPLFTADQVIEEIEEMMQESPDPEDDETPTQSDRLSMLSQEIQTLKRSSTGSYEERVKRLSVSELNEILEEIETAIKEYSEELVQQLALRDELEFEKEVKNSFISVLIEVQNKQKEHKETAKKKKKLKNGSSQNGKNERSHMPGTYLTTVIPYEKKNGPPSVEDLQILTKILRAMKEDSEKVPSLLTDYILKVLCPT

Assays:
Assay in all cases: log2 fold change, soluble protein after heating vs DMSO (PISA); higher = thermal stabilisation; K562 lysate, 10 uM; active = over 0.2 and 3.5 SD of the protein, either way, in both replicates (recomputed)
[1] = compound: C#Cc1cccc(Nc2ncnc3cc(OCCOC)c(OCCOC)cc23)c1 [erlotinib]
In short: (§1)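 Quantification was by TMTpro 16plex LC-MS/MS with equalised channel sums, applied to the supernatant after 21,000xg for 90 min. Samples were crude K562 extract at 1 mg/mL protein in PBS pH 7.4 with 1 mM MgCl2, treated with 10 μM compound for 30 min, heated for 3 min across 48°C-58°C, pooled and brought to 0.5% NP-40 at 4°C. Values are log-two fold changes in thermal stability relative to solvent controls, from duplicates.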

[2] = compound: C/C(=N\NC(=O)C1=CC(=CC=C1)S(=O)(=O)N2CCOCC2)/C3=C(C=CC(=C3)Cl)O
In short: as §1

[3] = compound: C1=CC(=CC=C1C2=NC3=C(N2)C=C(C=C3)C(=O)N)OC4=CC=C(C=C4)Cl
In short: as §1

[4] = compound: C1=CC2=C(C=CC(=C2)/C=C\3/C(=O)NC(=NCC4=CC=CS4)S3)N=C1
In short: as §1

[5] = compound: C1=CC2=NC=CN=C2C=C1/C=C/3\C(=O)NC(=O)S3
In short: as §1

[6] = compound: C1=CC=C(C=C1)C2=NC(=C(N2)C3=CC=NC=C3)C4=CC(=C(C=C4)Cl)O
In short: as §1

[7] = compound: C1=CC=C2C(=C1)C3=NNC4=CC=CC(=C43)C2=O
In short: as §1

[8] = compound: C1CCN(C1)C(=O)NC2=CC=CC(=C2)NC3=NC=C(C(=N3)NCCC4=CN=CN4)Br
In short: as §1

[9] = compound: C1CN(CCC1(CC2=CC=C(C=C2)Cl)N)C3=NC=NC4=C3C=CN4
In short: as §1

[10] = compound: C1COCCN1CCN2C3=CC=CC=C3N=C2NC(=O)C4=CC(=CC=C4)[N+](=O)[O-] [IRAK-1-4 Inhibitor I]
In short: as §1

[11] = compound: C=CC(=O)N1CCC[C@@H](n2nc(-c3ccc(Oc4ccccc4)cc3)c3c(N)ncnc32)C1 [ibrutinib]
In short: as §1

[12] = compound: CC(=O)c1cnc2ccc(-c3cc(Cl)c(O)c(Cl)c3)nc2c1N[C@H]1CC[C@H](CN(C)C)CC1
In short: as §1

[13] = compound: CC(C)(C)Cn1c(N)nc2ccc(-c3[nH]c(C(C)(C)C)nc3-c3ccc(F)cc3)nc21 [ralimetinib]
In short: as §1

[14] = compound: CC(C)(O)CC(=O)NCCn1ccc2ncnc(Nc3ccc(Oc4cccc(C(F)(F)F)c4)c(Cl)c3)c21
In short: as §1

[15] = compound: CC(C)C1=C2N=C(C=C(N2N=C1)NCC3=CC=CC=C3)NCCCCCCN
In short: as §1

[16] = compound: CC1=C(C(CC(=O)N1)C2=CC=C(C=C2)C(F)(F)F)C(=O)NC3=C(C=C4C(=C3)C=NN4)F
In short: as §1

[17] = compound: CC1=C(C2=C(C=C1)C(=O)C3=CC=CC=C3N2CCCN)C
In short: as §1

[18] = compound: CC1=C(C=C(C=C1)NC(=O)C2=CC(=CC=C2)C(C)(C)C#N)NC3=CC4=C(C=C3)N=CN(C4=O)C
In short: as §1

[19] = compound: CC1=C(C=C(C=C1)NC(=O)C2=CC(=CC=C2)N(C)C)NC(=O)C3=CC=C(C=C3)O
In short: as §1

[20] = compound: CC1=CC=C(C=C1)SC2=C3C=C(SC3=CN=C2)C(=O)N
In short: as §1

Measured: log2 fold change

FANCI (UniProt Q9NVI1)
inactive: [1] 0.012 | [2] -0.031 | [3] -0.056 | [4] 0.013 | [5] 0.021 | [6] -0.001 | [7] -0.051 | [8] -0.008 | [9] -0.009 | [10] 0.013 | [11] -0.024 | [12] 0.022 | [13] 0.02 | [14] -0.024 | [15] -0.038 | [16] -0.021 | [17] 0.026 | [18] 0.002 | [19] 0.033 | [20] 0.014

FBXO4 (UniProt Q9UKT5)
inactive: [1] -0.005 | [2] -0.014 | [3] -0.026 | [4] -0.005 | [5] 0.003 | [6] -0.015 | [7] -0.024 | [8] 0 | [9] -0.029 | [10] -0.012 | [11] 0.023 | [12] -0.011 | [13] 0.02 | [14] -0.009 | [15] -0.008 | [16] -0.024 | [17] 0.003 | [18] 0.026 | [19] -0.007 | [20] -0.025

FLAD1 (UniProt Q8NFF5)
inactive: [1] 0.001 | [2] -0.108 | [3] -0.047 | [4] -0.054 | [5] -0.035 | [6] 0.012 | [7] 0.045 | [8] -0.028 | [9] -0.027 | [10] 0.001 | [11] -0.011 | [12] 0.002 | [13] 0.016 | [14] -0.014 | [15] -0.072 | [16] -0.004 | [17] -0.026 | [18] 0.002 | [19] 0.011 | [20] 0.015

FNBP4 isoform 2 (UniProt Q8N3X1)
inactive: [1] -0.021 | [2] -0.007 | [3] -0.014 | [4] 0.019 | [5] 0.005 | [6] 0.011 | [7] 0.003 | [8] 0.015 | [9] 0.002 | [10] 0.011 | [11] 0.002 | [12] -0.007 | [13] 0.007 | [14] -0.013 | [15] -0.029 | [16] -0.004 | [17] -0.024 | [18] 0.003 | [19] 0.001 | [20] -0.009

FAM98B (UniProt Q52LJ0)
inactive: [1] 0.033 | [2] -0.02 | [3] 0.029 | [4] 0.007 | [5] 0.007 | [6] 0.011 | [7] -0.057 | [8] -0.058 | [9] 0.015 | [10] -0.012 | [11] -0.003 | [12] 0.013 | [13] 0.036 | [14] -0.024 | [15] 0.008 | [16] -0.037 | [17] 0.016 | [18] 0.023 | [19] 0.033 | [20] -0.025

FKBP8 isoform 2 (UniProt Q14318)
inactive: [1] -0.011 | [2] 0.041 | [3] 0.012 | [4] 0.002 | [5] -0.005 | [6] 0.01 | [7] 0 | [8] -0.054 | [9] 0.001 | [10] 0.008 | [11] 0.022 | [12] -0.016 | [13] 0.018 | [14] -0.017 | [15] 0.027 | [16] -0.041 | [17] 0.024 | [18] 0.034 | [19] 0.007 | [20] -0.053

FDX2 (UniProt Q6P4F2)
inactive: [1] -0.051 | [2] 0.063 | [3] 0.044 | [4] 0.065 | [5] -0.009 | [6] -0.041 | [7] -0.054 | [8] -0.402 | [9] -0.17 | [10] 0.05 | [11] 0.056 | [12] -0.025 | [13] -0.047 | [14] -0.194 | [15] -0.039 | [16] 0.01 | [17] -0.018 | [18] 0.015 | [19] 0.05 | [20] 0.006

FGF2 (UniProt P09038)
inactive: [1] -0.027 | [2] 0.063 | [3] -0.081 | [4] 0.049 | [5] 0.025 | [6] 0.021 | [7] -0.009 | [8] -0.003 | [9] 0.058 | [10] -0.01 | [11] 0.089 | [12] 0.008 | [13] 0.008 | [14] -0.06 | [15] -0.058 | [16] -0.007 | [17] -0.039 | [18] -0.056 | [19] 0.008 | [20] 0.032

Copied from the listing (two entries):
FDX2 (UniProt Q6P4F2)
inactive: [1] -0.051 | [2] 0.063 | [3] 0.044 | [4] 0.065 | [5] -0.009 | [6] -0.041 | [7] -0.054 | [8] -0.402 | [9] -0.17 | [10] 0.05 | [11] 0.056 | [12] -0.025 | [13] -0.047 | [14] -0.194 | [15] -0.039 | [16] 0.01 | [17] -0.018 | [18] 0.015 | [19] 0.05 | [20] 0.006

FGF2 (UniProt P09038)
inactive: [1] -0.027 | [2] 0.063 | [3] -0.081 | [4] 0.049 | [5] 0.025 | [6] 0.021 | [7] -0.009 | [8] -0.003 | [9] 0.058 | [10] -0.01 | [11] 0.089 | [12] 0.008 | [13] 0.008 | [14] -0.06 | [15] -0.058 | [16] -0.007 | [17] -0.039 | [18] -0.056 | [19] 0.008 | [20] 0.032

More entries.

FIG4 (UniProt Q92562)
inactive: [1] 0.032 | [2] -0.032 | [3] -0.029 | [4] 0 | [5] 0.007 | [6] 0.064 | [7] 0.02 | [8] 0.061 | [9] -0.053 | [10] 0.003 | [11] 0.14 | [12] -0.07 | [13] -0.01 | [14] -0.115 | [15] -0.012 | [16] -0.248 | [17] 0.029 | [18] -0.093 | [19] -0.085 | [20] 0.012

FIGNL1 (UniProt Q6PIW4)
inactive: [1] -0.008 | [2] -0.019 | [3] -0.025 | [4] 0.005 | [5] -0.011 | [6] -0.005 | [7] -0.015 | [8] 0.035 | [9] 0.006 | [10] 0.008 | [11] 0 | [12] 0.063 | [13] 0.04 | [14] 0.022 | [15] -0.006 | [16] -0.067 | [17] 0.008 | [18] -0.002 | [19] 0.02 | [20] 0.037

FAT3 isoform 1 (UniProt Q8TDW7)
inactive: [1] -0.027 | [2] 0.046 | [3] 0.333 | [4] -0.065 | [5] 0.024 | [6] 0.022 | [7] 0.007 | [8] 0 | [9] 0.065 | [10] 0.042 | [11] 0.022 | [12] 0.011 | [13] -0.018 | [14] 0.071 | [15] 0.043 | [16] 0.055 | [17] -0.125 | [18] -0.009 | [19] 0.06 | [20] 0.049

FCHSD1 (UniProt Q86WN1)
inactive: [1] 0.029 | [2] -0.018 | [3] -0.027 | [4] -0.163 | [5] -0.051 | [6] -0.044 | [7] -0.056 | [8] -0.008 | [9] -0.012 | [10] 0.04 | [11] 0.048 | [12] 0.005 | [13] 0.058 | [14] 0.068 | [15] -0.006 | [16] 0.052 | [17] 0.013 | [18] 0.027 | [19] 0.094 | [20] 0.022

FANCD2 isoform 1 (UniProt Q9BXW9)
inactive: [1] 0.059 | [2] 0.002 | [3] 0.019 | [4] -0.049 | [5] 0.01 | [6] 0.006 | [7] -0.092 | [8] -0.062 | [9] 0.095 | [10] 0.036 | [11] 0.01 | [12] -0.009 | [13] 0 | [14] -0.066 | [15] 0.048 | [16] -0.02 | [17] -0.068 | [18] 0.071 | [19] 0.011 | [20] -0.008

FMNL1 isoform 3 (UniProt O95466)
inactive: [1] -0.045 | [2] 0.045 | [3] -0.006 | [4] -0.102 | [5] -0.062 | [6] -0.004 | [7] 0.018 | [8] -0.006 | [9] 0.019 | [10] -0.009 | [11] 0.043 | [12] -0.002 | [13] 0.038 | [14] -0.02 | [15] 0.023 | [16] 0.099 | [17] 0.03 | [18] 0.073 | [19] 0.015 | [20] 0.001

FBXO5 (UniProt Q9UKT4)
inactive: [1] -0.042 | [2] -0.06 | [3] 0.048 | [4] -0.054 | [5] -0.098 | [6] 0.021 | [7] 0.035 | [8] -0.026 | [9] 0.001 | [10] 0.011 | [11] 0.02 | [12] -0.125 | [13] 0.058 | [14] -0.022 | [15] 0.128 | [16] 0.064 | [17] -0.023 | [18] 0.015 | [19] -0.013 | [20] 0.101

FEZ2 isoform 2 (UniProt Q9UHY8)
inactive: [1] 0.015 | [2] 0.099 | [3] 0.021 | [4] 0.046 | [5] -0.017 | [6] 0.029 | [7] -0.024 | [8] 0.006 | [9] 0.048 | [10] 0.024 | [11] -0.021 | [12] 0.043 | [13] 0.009 | [14] -0.073 | [15] 0.001 | [16] -0.038 | [17] -0.034 | [18] 0.055 | [19] 0.006 | [20] -0.043
